Laboratory results reported in USRE42930E1 (Bristol-Myers Squibb Company, priority 2006, dated 2011).

Experiment: general procedure: Fmoc solid-phase peptide synthesis; H-Cys(4-methoxytrityl)-2-chlorotrityl-resin; PyBOP
Details: conjugation step, analytical HPLC

For “(S)-2-(4-((2-amino-4-oxo-3,4-dihydropteridin-6-yl)methylamino)benzamido)-5-((S)-3-carboxy-1-((S)-1-((S)-3-carboxy-1-((R)-1-carboxy-2-(2-(2-((2-((1S,3S,7S,10R,11S,12S,16R)-7,11-dihydroxy-8,8,10,12-tetramethyl-3-((E)-1-(2-methylthiazol-4-yl)prop-1-en-2-yl)-5,9-dioxo-4-oxa-17-aza-bicyclo[14.1.0]heptadecan-17-yl)ethoxy)carbonyloxy)ethyl)disulfanyl)ethylamino)-1-oxopropan-2-ylamino)-5-guanidino-1-oxopentan-2-ylamino)-1-oxopropan-2-ylamino)-5-oxopentanoic acid”, which “final HPLC purity” value is on record?
The value was greater than 98%.
